PubChem BioAssay AID1259308 | NCATS, 2017
This is an unselected part of about 59,000 reagents. About 1,510 of them (2.6%) were called active. 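Calls use total luciferase alone and ignore viability, so some active siRNAs may act by altering cell number.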 A number with no mark means an inactive call. No sequences are given here.

Assay: 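Knock-downs that increase output of a recombinant reporter protein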 (primary screen)
Cell system: human HEK293 embryonic kidney cells stably expressing firefly luciferase (HEK-CMV-Luc2-Hygro)
Reagent: single siRNA against human genes, 0.8 pmol siRNA per well
Duration: 72 h
Measurement: 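Reporter luminescence and viable-cell signal on separate replicate plates, given as percent of non-targeting control and median/MAD z-scores, plus per-cell luciferase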
Direction: total luciferase, z-score and total luciferase, % of control: higher = more reporter protein produced; luciferase per cell, z-score: higher = more reporter output per viable cell; viable cells, % of control: higher = more viable cells
Call rule: 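An siRNA counts as active if its total luciferase robust z-score exceeds 3; genes with two or more such siRNAs out of three were retested with fresh siRNAs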
Calls: active = raised luciferase; inactive = no rise

no.	target gene	PubChem SID	total luciferase, z-score	total luciferase, % of control	luciferase per cell, z-score	viable cells, % of control
1	SPRY4	SID160751016	2.53	132	2.89	69.1
2	SPRY4	SID160751017	-0.769	66.6	-0.206	78.6
3	SPRY4	SID160751018	-0.743	67.1	-0.865	94.2
4	ADAMTS19	SID160760492	4.31 (active)	168	3.34	77.8
5	ADAMTS19	SID160760493	1.3	108	0.633	102
6	ADAMTS19	SID160760494	-0.294	76	-0.669	101
7	HSPH1	SID160729275	0.147	84.8	-0.201	99.9
8	HSPH1	SID160729276	1.1	104	1.31	82.2
9	HSPH1	SID160729277	-0.134	79.2	-0.262	94.9
10	CETP	SID160742046	-0.129	79.3	0.0795	86.8
11	CETP	SID160742057	0.602	93.9	-0.112	108
12	CETP	SID160742067	-1.41	53.9	-1.71	94.5
13	PIGV	SID160743992	0.175	85.4	0.0519	94.1
14	PIGV	SID160743993	0.053	82.9	-0.198	97.7
15	PIGV	SID160743994	2.58	133	2.11	85.5
16	NFKB1	SID160778020	1.71	116	1.25	93.1
17	NFKB1	SID160778021	-0.918	63.6	-0.734	86.3
18	NFKB1	SID160778022	1.21	106	0.697	98.5
19	TLR6	SID160728201	0.67	95.2	0.335	97.4
20	TLR6	SID160728202	0.706	95.9	1.4	74.2
21	TLR6	SID160728203	0.0339	82.6	-1.09	123
22	PTRH1	SID160724820	0.267	87.2	0.27	90.8
23	PTRH1	SID160724821	-0.75	67	-1.36	107
24	PTRH1	SID160757596	1.48	111	0.782	101
25	PAFAH1B2	SID160713788	-0.981	62.4	-1.38	100
26	PAFAH1B2	SID160713789	-0.208	77.8	-0.117	89.6
27	PAFAH1B2	SID160778535	-0.289	76.1	0.417	76.2
28	WNK4	SID160748328	0.17	85.3	0.418	85.3
29	WNK4	SID160748329	-0.363	74.7	-0.665	99.4
30	WNK4	SID160748330	-0.116	79.6	0.214	84.1
31	LDHAL6B	SID160754296	-0.41	73.7	-0.819	102
32	LDHAL6B	SID160754297	-0.791	66.2	-1.39	107
33	LDHAL6B	SID160754298	-1.85	45.2	-1.72	79.5
34	ZNF207	SID160719274	3.71 (active)	156	2.62	87.3
35	ZNF207	SID160719275	0.349	88.8	1.3	70.5
36	ZNF207	SID160719277	2.92	140	2.1	90.1
37	NRXN3	SID160722052	2.64	134	1.46	102
38	NRXN3	SID160722053	2.92	140	1.5	105
39	NRXN3	SID160722054	-0.742	67.1	-1.01	98
40	RAB5B	SID160715542	1.22	106	0.365	108
41	RAB5B	SID160715543	1.24	106	0.608	101
42	RAB5B	SID160715544	-0.188	78.1	-0.589	102
43	SERTAD4-AS1	SID160768358	-0.00752	81.7	0.244	85.7
44	SERTAD4-AS1	SID160768359	-1.42	53.6	-1.61	91.5
45	SERTAD4-AS1	SID160768360	0.524	92.3	-0.24	110
46	DGCR6	SID160719726	0.423	90.3	0.245	94.6
47	DGCR6	SID160719727	0.736	96.5	2.2	60.4
48	DGCR6	SID160724125	-0.488	72.2	0.0154	80.3
49	MEIS2	SID160777130	0.325	88.3	0.851	78.9
50	MEIS2	SID160777131	-0.107	79.8	-0.281	96
51	MEIS2	SID160777132	-0.0414	81.1	-0.0977	92.9
52	IQCF2	SID160766094	0.32	88.2	1.37	68.7
53	IQCF2	SID160766096	0.865	99.1	1.64	72
54	IQCF2	SID160766097	0.693	95.7	0.626	90.7
55	PDIA3	SID160774614	-0.0805	80.3	0.653	75.5
56	PDIA3	SID160774615	0.0175	82.2	-0.708	111
57	PDIA3	SID160774616	-1.06	60.8	-0.411	75.6
58	WDFY2	SID160755282	1.39	110	2.44	64.4
59	WDFY2	SID160755283	0.245	86.8	0.204	91.9
60	WDFY2	SID160755284	-0.289	76.1	-0.359	93.5
61	OR7C2	SID160738125	-1.52	51.7	-1.72	90.9
62	OR7C2	SID160738127	-0.168	78.5	-0.396	97.4
63	OR7C2	SID160738128	1.76	117	1.17	96
64	UHMK1	SID160756688	1.01	102	0.587	97.6
65	UHMK1	SID160756689	-0.585	70.3	-1.04	103
66	UHMK1	SID160756691	-0.628	69.4	-1.06	102
67	GBP7	SID160765942	0.46	91	0.0487	100
68	GBP7	SID160765943	-0.146	79	-0.636	104
69	GBP7	SID160765944	0.0558	83	1.84	57.2
70	KHDC3L	SID160759417	0.0879	83.6	0.158	89.7
71	KHDC3L	SID160759418	-0.457	72.8	-0.505	92.9
72	KHDC3L	SID160759419	0.9	99.8	1.82	69
73	FCRL4	SID160751097	-0.0116	81.7	-0.176	95.6
74	FCRL4	SID160751098	-0.178	78.3	-0.844	109
75	FCRL4	SID160751099	1.26	107	1.51	80.4

Reformatted: results already given.
target gene,PubChem SID,"total luciferase, z-score","total luciferase, % of control","luciferase per cell, z-score","viable cells, % of control"
CETP,SID160742046,-0.129,79.3,0.0795,86.8
CETP,SID160742057,0.602,93.9,-0.112,108
CETP,SID160742067,-1.41,53.9,-1.71,94.5
PIGV,SID160743992,0.175,85.4,0.0519,94.1
PIGV,SID160743993,0.053,82.9,-0.198,97.7
PIGV,SID160743994,2.58,133,2.11,85.5
NFKB1,SID160778020,1.71,116,1.25,93.1
